# Assay results

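Vaccinia-infected cells with a two-color viral stage reporter; Venus fluorescence read on a plate reader; the cell line is not named here; timing not stated here.
The test concentration is not given here.
Percent change in Venus reporter signal; lower (more negative) values mean stronger inhibition of that viral stage.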

Values are in %.
How 0% and 100% were set is not given here.
Common to all entries: measured here: Venus reporter, other viral stage.
This is a side read-out of the assay, for part of the compounds, not drawn at random.

{"compound": "Cn1cnc(S(=O)(=O)N2CCCCN3[C@H](CO)[C@H](c4ccc(C#CC5CCCC5)cc4)[C@H]3C2)c1", "activity change (Venus) (%)": "-54.19"}
{"compound": "Cc1ccccc1-c1ccc([C@H]2[C@@H](CO)N3CCCCN(C(=O)Nc4ccccc4)C[C@H]23)cc1", "activity change (Venus) (%)": "-70.23"}
{"compound": "N#C[C@@H]1[C@H](c2ccc(C#Cc3ccc(F)cc3)cc2)[C@@H](CO)N1C(=O)C1CCCC1", "activity change (Venus) (%)": "-45.22"}
{"compound": "C[C@@H]1CN([C@H](C)CO)S(=O)(=O)c2ccc(/C=C/c3ccccc3)cc2O[C@H]1CN(C)Cc1cncnc1", "activity change (Venus) (%)": "-40.7"}
{"compound": "COc1ccc2c3c([nH]c2c1)[C@H](CO)N(C(=O)Nc1ccc(F)cc1)CC31CN(Cc2ccc(F)cc2)C1", "activity change (Venus) (%)": "-49.24"}
{"compound": "COc1ccc2c3c(n(C)c2c1)[C@@H](CO)N(C(=O)C1CC1)CC31CCN(Cc2cccc(F)c2)CC1", "activity change (Venus) (%)": "-49.15"}
{"compound": "O=C(c1cnccn1)N1CC(=O)N2[C@H](C1)[C@@H](c1ccc(C#CCC3CCCC3)cc1)[C@@H]2CO", "activity change (Venus) (%)": "-32.78"}
{"compound": "CN1c2ccc(-c3ccc(C#N)cc3)cc2[C@H]2[C@H](CCN2C(=O)c2cccc(F)c2)[C@@H]1CO", "activity change (Venus) (%)": "-24.11"}
{"compound": "COc1ccc(CN(C)C[C@H]2OCCCC[C@H](C)Oc3ccc(NC(=O)C4CCCCC4)cc3C(=O)N([C@@H](C)CO)C[C@H]2C)cc1", "activity change (Venus) (%)": "-30.75"}
{"compound": "COCC(=O)N1CCCCN2[C@H](CO)[C@@H](c3ccc(C#Cc4ccc(OC)cc4)cc3)[C@H]2C1", "activity change (Venus) (%)": "-37.74"}
{"compound": "CO[C@H]1CN(C)C(=O)c2cc(NS(=O)(=O)c3ccc(C)cc3)ccc2OC[C@@H](C)N(Cc2nccs2)C[C@H]1C", "activity change (Venus) (%)": "-22.4"}
{"compound": "C[C@H]1CN([C@@H](C)CO)C(=O)c2cccc(NC(=O)c3ccc(-c4nccs4)cc3)c2O[C@H]1CN(C)Cc1ccc(Cl)c(Cl)c1", "activity change (Venus) (%)": "-44"}
{"compound": "COc1ccc(S(=O)(=O)Nc2ccc3c(c2)C(=O)N([C@H](C)CO)C[C@@H](C)[C@@H](CN(C)Cc2ccc(Cl)c(Cl)c2)OCCCC[C@H](C)O3)cc1", "activity change (Venus) (%)": "-46.2"}
{"compound": "CC(C)CC#Cc1ccc2c(c1)O[C@@H](CN(C)C(=O)c1cccc(F)c1)[C@@H](C)CN([C@@H](C)CO)S2(=O)=O", "activity change (Venus) (%)": "-22.75"}
{"compound": "CO[C@H]1CN(C)C(=O)c2cc(NC(=O)NC(C)C)ccc2OC[C@H](C)N(Cc2ccc(-c3ccccn3)cc2)C[C@@H]1C", "activity change (Venus) (%)": "-49.34"}
{"compound": "CN1c2ccc(-c3cccc(F)c3)cc2[C@@H]2[C@@H](CCN2C(=O)Cc2cccnc2)[C@@H]1CO", "activity change (Venus) (%)": "-32.79"}
{"compound": "COc1cccc(NC(=O)N2[C@H](CO)[C@H](c3ccccc3)[C@H]2CNCC(C)C)c1", "activity change (Venus) (%)": "-26.57"}
{"compound": "C[C@@H]1CCCCO[C@@H](CN(C)CC2CCCCC2)[C@H](C)CN([C@@H](C)CO)C(=O)c2cc(NC(=O)Nc3ccc(F)cc3)ccc2O1", "activity change (Venus) (%)": "-40.59"}
{"compound": "COc1cccc(-c2ccc3c(c2)[C@H]2[C@H](CCN2C(=O)NC2CCCCC2)[C@@H](CO)N3C)c1", "activity change (Venus) (%)": "-66.42"}
{"compound": "C[C@H]1CN([C@@H](C)CO)S(=O)(=O)c2ccc(-c3ccc(F)cc3)cc2O[C@@H]1CN(C)C(=O)Nc1ccccc1F", "activity change (Venus) (%)": "-46.66"}
{"compound": "Cc1ccc(S(=O)(=O)Nc2ccc3c(c2)C(=O)N([C@@H](C)CO)C[C@@H](C)[C@@H](CN(C)C(=O)NC2CCCCC2)O3)cc1", "activity change (Venus) (%)": "-36.95"}
{"compound": "COc1ccc(-c2ccc3c(c2)O[C@@H](CN(C)C(=O)c2ccccc2F)[C@H](C)CN([C@H](C)CO)S3(=O)=O)cc1", "activity change (Venus) (%)": "-24.99"}
{"compound": "COc1ccc(S(=O)(=O)Nc2ccc3c(c2)C(=O)N([C@@H](C)CO)C[C@@H](C)[C@H](CN(C)Cc2ccc4c(c2)OCO4)OCCCC[C@@H](C)O3)cc1", "activity change (Venus) (%)": "-49.38"}
{"compound": "CCCNC(=O)N1CC(=O)N2[C@H](CO)[C@@H](c3ccc(C#Cc4cccc(OC)c4)cc3)[C@H]2C1", "activity change (Venus) (%)": "-35.65"}
{"compound": "C[C@@H]1CCCCO[C@H](CN(C)Cc2ccc3c(c2)OCO3)[C@H](C)CN([C@H](C)CO)C(=O)c2cc(NS(=O)(=O)c3ccc(F)cc3)ccc2O1", "activity change (Venus) (%)": "-40.09"}
{"compound": "O=C(Nc1cccc(F)c1)N1CCCCN2[C@@H](CO)[C@H](c3ccc(-c4ccccc4F)cc3)[C@@H]2C1", "activity change (Venus) (%)": "-61.51"}
{"compound": "COc1cccc(C#Cc2ccc3c(c2)O[C@H](CN(C)C)[C@@H](C)CN([C@@H](C)CO)S3(=O)=O)c1", "activity change (Venus) (%)": "-48.92"}
{"compound": "CC(C)CC#Cc1ccc([C@@H]2[C@H](CO)N3CCCCN(C(=O)NC4CCCC4)C[C@@H]23)cc1", "activity change (Venus) (%)": "-71.83"}
{"compound": "C[C@@H]1CCCCO[C@H](CN(C)Cc2ccc3c(c2)OCO3)[C@@H](C)CN([C@@H](C)CO)C(=O)c2cc(NC(=O)c3ccccc3)ccc2O1", "activity change (Venus) (%)": "-52.15"}
{"compound": "C[C@H]1CCCCO[C@@H](CN(C)S(=O)(=O)c2ccccc2)[C@@H](C)CN([C@@H](C)CO)C(=O)c2cc(NC(=O)CCC(F)(F)F)ccc2O1", "activity change (Venus) (%)": "-39.14"}
{"compound": "N#Cc1cccc(-c2ccc(C3[C@@H]4CN(S(=O)(=O)c5ccccc5)C[C@H]3N4)cc2)c1", "stereo": "some centres undefined", "activity change (Venus) (%)": "-39.18"}
{"compound": "CO[C@@H]1CN(C)C(=O)c2ccc(NC(=O)Nc3cccc(Cl)c3)cc2OC[C@@H](C)NC[C@H]1C", "activity change (Venus) (%)": "-14.34"}
{"compound": "Cc1ccc(S(=O)(=O)N[C@H]2CC[C@@H](CCNC(=O)Nc3ccc(Cl)cc3)O[C@@H]2CO)cc1", "activity change (Venus) (%)": "-52.08"}
{"compound": "COc1ccc(NC(=O)N(C)C[C@H]2OCCCC[C@H](C)Oc3ccc(NC(=O)Cc4ccccc4)cc3C(=O)N([C@@H](C)CO)C[C@@H]2C)cc1", "activity change (Venus) (%)": "-34.98"}
{"compound": "OC[C@@H]1[C@@H](c2ccc(-c3ccc(F)cc3)cc2)[C@H]2CN(CCC(F)(F)F)CCCCN12", "activity change (Venus) (%)": "-83.97"}
{"compound": "Cc1ccccc1-c1ccc2c(c1)O[C@@H](CN(C)C(=O)Nc1ccc(F)cc1)[C@H](C)CN([C@@H](C)CO)S2(=O)=O", "activity change (Venus) (%)": "-37.81"}

The results are deposited in PubChem (AID1053133; Broad Institute, 2014).